These are yes or no findings as the source states them, for the method shown. In cells and extracts the contact can be indirect. These calls come from enrichment with a bait or labelling near it, and not all partners need be listed. For some assays here: A no says only that the protein was not detected with the bait.

By UniProt entry, the sequences of proteins in these tests, tags left out.
UniProt Q9BSM1: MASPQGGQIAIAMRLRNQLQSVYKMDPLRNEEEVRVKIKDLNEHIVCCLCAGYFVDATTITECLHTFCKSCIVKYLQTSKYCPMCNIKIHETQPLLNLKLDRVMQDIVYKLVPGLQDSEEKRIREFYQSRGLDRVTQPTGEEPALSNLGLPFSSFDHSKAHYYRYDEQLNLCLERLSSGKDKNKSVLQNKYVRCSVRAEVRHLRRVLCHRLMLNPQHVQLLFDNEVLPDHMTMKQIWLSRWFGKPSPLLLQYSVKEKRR
UniProt Q9H9S0: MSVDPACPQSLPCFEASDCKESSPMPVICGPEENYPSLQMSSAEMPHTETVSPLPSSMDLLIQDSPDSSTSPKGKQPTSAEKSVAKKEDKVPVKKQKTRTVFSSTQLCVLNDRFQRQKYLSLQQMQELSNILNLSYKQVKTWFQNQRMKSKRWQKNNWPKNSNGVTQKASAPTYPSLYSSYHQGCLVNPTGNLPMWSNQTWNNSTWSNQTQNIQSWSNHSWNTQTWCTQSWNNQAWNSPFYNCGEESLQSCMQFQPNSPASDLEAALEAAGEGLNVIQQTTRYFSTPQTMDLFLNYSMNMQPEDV
UniProt Q6W2J9: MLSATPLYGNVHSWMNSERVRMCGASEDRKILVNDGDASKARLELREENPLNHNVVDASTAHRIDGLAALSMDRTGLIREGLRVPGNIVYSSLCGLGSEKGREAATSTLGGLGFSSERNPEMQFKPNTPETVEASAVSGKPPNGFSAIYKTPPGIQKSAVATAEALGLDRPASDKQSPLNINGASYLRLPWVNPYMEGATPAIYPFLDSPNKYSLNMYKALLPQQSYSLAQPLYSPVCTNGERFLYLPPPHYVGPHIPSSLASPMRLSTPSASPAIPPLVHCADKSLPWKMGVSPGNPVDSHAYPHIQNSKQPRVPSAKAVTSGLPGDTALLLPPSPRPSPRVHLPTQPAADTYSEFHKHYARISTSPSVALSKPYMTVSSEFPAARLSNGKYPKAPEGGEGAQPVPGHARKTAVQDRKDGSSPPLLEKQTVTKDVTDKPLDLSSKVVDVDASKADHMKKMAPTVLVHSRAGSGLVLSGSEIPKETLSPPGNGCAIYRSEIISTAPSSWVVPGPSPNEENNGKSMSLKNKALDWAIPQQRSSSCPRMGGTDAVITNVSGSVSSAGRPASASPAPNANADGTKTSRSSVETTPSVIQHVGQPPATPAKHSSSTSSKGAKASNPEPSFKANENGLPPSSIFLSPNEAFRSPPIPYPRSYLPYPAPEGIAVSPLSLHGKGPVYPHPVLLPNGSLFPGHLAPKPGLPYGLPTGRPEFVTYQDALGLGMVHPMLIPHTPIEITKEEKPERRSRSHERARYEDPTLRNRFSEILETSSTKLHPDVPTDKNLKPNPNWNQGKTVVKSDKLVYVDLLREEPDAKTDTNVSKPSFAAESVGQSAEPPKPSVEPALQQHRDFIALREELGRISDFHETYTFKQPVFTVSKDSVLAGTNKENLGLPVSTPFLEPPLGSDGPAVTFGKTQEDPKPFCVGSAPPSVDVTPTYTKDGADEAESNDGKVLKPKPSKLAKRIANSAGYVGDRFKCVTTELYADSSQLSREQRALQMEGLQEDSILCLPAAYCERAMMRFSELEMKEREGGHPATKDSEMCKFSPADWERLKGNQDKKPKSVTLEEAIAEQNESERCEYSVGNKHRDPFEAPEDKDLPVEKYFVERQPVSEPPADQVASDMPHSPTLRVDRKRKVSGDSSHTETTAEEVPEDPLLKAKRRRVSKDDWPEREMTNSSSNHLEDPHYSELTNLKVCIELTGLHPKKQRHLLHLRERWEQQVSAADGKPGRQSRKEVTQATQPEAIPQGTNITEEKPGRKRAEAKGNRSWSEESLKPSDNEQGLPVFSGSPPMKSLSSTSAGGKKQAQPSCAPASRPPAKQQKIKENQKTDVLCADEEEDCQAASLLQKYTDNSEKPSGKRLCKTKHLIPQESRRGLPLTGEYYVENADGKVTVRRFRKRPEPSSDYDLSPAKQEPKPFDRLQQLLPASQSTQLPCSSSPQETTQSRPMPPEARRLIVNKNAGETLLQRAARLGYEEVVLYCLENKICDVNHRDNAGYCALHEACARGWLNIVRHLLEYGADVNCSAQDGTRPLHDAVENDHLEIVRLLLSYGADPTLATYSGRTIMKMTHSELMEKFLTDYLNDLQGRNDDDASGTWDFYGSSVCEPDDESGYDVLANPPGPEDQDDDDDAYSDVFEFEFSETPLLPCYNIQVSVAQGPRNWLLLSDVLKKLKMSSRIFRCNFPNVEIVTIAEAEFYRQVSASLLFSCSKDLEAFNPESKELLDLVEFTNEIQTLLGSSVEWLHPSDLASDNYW
UniProt Q01860: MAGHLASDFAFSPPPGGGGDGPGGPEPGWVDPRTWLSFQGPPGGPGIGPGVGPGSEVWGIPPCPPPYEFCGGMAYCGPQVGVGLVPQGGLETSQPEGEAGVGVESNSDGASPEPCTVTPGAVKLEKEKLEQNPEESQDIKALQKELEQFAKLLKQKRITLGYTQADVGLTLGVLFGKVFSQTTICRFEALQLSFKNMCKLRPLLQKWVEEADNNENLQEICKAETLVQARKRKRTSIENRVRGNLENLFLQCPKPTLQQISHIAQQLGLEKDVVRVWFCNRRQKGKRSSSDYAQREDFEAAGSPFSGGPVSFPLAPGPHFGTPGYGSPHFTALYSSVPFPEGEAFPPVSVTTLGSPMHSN

Holding throughout (test): affinity purification with mass spectrometry; endogenous immunoprecipitation (antibodies to PCGF1, BCOR, DPPA4, NANOG or OCT4) from nuclear lysate of undifferentiated NT2 cells, trypsin digest on beads, label-free mass spectrometry (Q Exactive), volcano plot against IgG beads
Assay [1] addresses PCGF1 (human (endogenous in NT2)) (UniProt Q9BSM1).
The target of assay [2] is NANOG (human (endogenous in NT2)) (UniProt Q9H9S0).
Assay [3] deals with BCOR (human (endogenous in NT2)) (UniProt Q6W2J9).
Assay [4] deals with T1, DPPA4 (human (endogenous in NT2)) (UniProt Q7L190).
T1 sequence: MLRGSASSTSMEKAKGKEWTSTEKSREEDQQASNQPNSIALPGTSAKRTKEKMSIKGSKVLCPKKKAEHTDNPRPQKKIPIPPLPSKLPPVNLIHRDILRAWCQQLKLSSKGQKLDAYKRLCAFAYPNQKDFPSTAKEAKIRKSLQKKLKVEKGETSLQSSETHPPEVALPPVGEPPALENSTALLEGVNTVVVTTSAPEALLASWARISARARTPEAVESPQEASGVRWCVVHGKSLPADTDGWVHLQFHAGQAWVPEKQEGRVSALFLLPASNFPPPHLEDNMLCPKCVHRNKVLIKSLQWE

Assay [5] addresses OCT4 (human (endogenous in NT2)) (UniProt Q01860).

B1: DPPA4 (protein, UniProt Q7L190 1-304)
chain: MLRGSASSTSMEKAKGKEWTSTEKSREEDQQASNQPNSIALPGTSAKRTKEKMSIKGSKVLCPKKKAEHTDNPRPQKKIPIPPLPSKLPPVNLIHRDILRAWCQQLKLSSKGQKLDAYKRLCAFAYPNQKDFPSTAKEAKIRKSLQKKLKVEKGETSLQSSETHPPEVALPPVGEPPALENSTALLEGVNTVVVTTSAPEALLASWARISARARTPEAVESPQEASGVRWCVVHGKSLPADTDGWVHLQFHAGQAWVPEKQEGRVSALFLLPASNFPPPHLEDNMLCPKCVHRNKVLIKSLQWE
On to B1, for which, in assay [1], the binding entry is on record as “binds”.

B2: PHC1 (protein, UniProt P78364 1-1004)
chain: METESEQNSNSTNGSSSSGGSSRPQIAQMSLYERQAVQALQALQRQPNAAQYFHQFMLQQQLSNAQLHSLAAVQQATIAASRQASSPNTSTTQQQTTTTQASINLATTSAAQLISRSQSVSSPSATTLTQSVLLGNTTSPPLNQSQAQMYLRPQLGNLLQVNRTLGRNVPLASQLILMPNGAVAAVQQEVPSAQSPGVHADADQVQNLAVRNQQASAQGPQMQGSTQKAIPPGASPVSSLSQASSQALAVAQASSGATNQSLNLSQAGGGSGNSIPGSMGPGGGGQAHGGLGQLPSSGMGGGSCPRKGTGVVQPLPAAQTVTVSQGSQTEAESAAAKKAEADGSGQQNVGMNLTRTATPAPSQTLISSATYTQIQPHSLIQQQQQIHLQQKQVVIQQQIAIHHQQQFQHRQSQLLHTATHLQLAQQQQQQQQQQQQQQQPQATTLTAPQPPQVPPTQQVPPSQSQQQAQTLVVQPMLQSSPLSLPPDAAPKPPIPIQSKPPVAPIKPPQLGAAKMSAAQQPPPHIPVQVVGTRQPGTAQAQALGLAQLAAAVPTSRGMPGTVQSGQAHLASSPPSSQAPGALQECPPTLAPGMTLAPVQGTAHVVKGGATTSSPVVAQVPAAFYMQSVHLPGKPQTLAVKRKADSEEERDDVSTLGSMLPAKASPVAESPKVMDEKSSLGEKAESVANVNANTPSSELVALTPAPSVPPPTLAMVSRQMGDSKPPQAIVKPQILTHIIEGFVIQEGAEPFPVGCSQLLKESEKPLQTGLPTGLTENQSGGPLGVDSPSAELDKKANLLKCEYCGKYAPAEQFRGSKRFCSMTCAKRYNVSCSHQFRLKRKKMKEFQEANYARVRRRGPRRSSSDIARAKIQGKCHRGQEDSSRGSDNSSYDEALSPTSPGPLSVRAGHGERDLGNPNTAPPTPELHGINPVFLSSNPSRWSVEEVYEFIASLQGCQEIAEEFRSQEIDGQALLLLKEEHLMSAMNIKLGPALKICAKINVLKET
As to B2, the binding entry in assay [2] was “binds”.

B3: PATZ1 (protein, UniProt Q9HBE1 1-687)
chain: MERVNDASCGPSGCYTYQVSRHSTEMLHNLNQQRKNGGRFCDVLLRVGDESFPAHRAVLAACSEYFESVFSAQLGDGGAADGGPADVGGATAAPGGGAGGSRELEMHTISSKVFGDILDFAYTSRIVVRLESFPELMTAAKFLLMRSVIEICQEVIKQSNVQILVPPARADIMLFRPPGTSDLGFPLDMTNGAALAANSNGIAGSMQPEEEAARAAGAAIAGQASLPVLPGVDRLPMVAGPLSPQLLTSPFPSVASSAPPLTGKRGRGRPRKANLLDSMFGSPGGLREAGILPCGLCGKVFTDANRLRQHEAQHGVTSLQLGYIDLPPPRLGENGLPISEDPDGPRKRSRTRKQVACEICGKIFRDVYHLNRHKLSHSGEKPYSCPVCGLRFKRKDRMSYHVRSHDGSVGKPYICQSCGKGFSRPDHLNGHIKQVHTSERPHKCQTCNASFATRDRLRSHLACHEDKVPCQVCGKYLRAAYMADHLKKHSEGPSNFCSICNRGFSSASYLKVHVKTHHGVPLPQVSRHQEPILNGGAAFHCARTYGNKEGQKCSHQDPIESSDSYGDLSDASDLKTPEKQSANGSFSCDMAVPKNKMESDGEKKYPCPECGSFFRSKSYLNKHIQKVHVRALGGPLGDLGPALGSPFSPQQNMSLLESFGFQIVQSAFASSLVDPEVDQQPMGPEGK
On to B3, for which, in assay [1], the binding result is listed as “binds”.

B4: PCGF2 (protein, UniProt P35227 1-344)
chain: MHRTTRIKITELNPHLMCALCGGYFIDATTIVECLHSFCKTCIVRYLETNKYCPMCDVQVHKTRPLLSIRSDKTLQDIVYKLVPGLFKDEMKRRRDFYAAYPLTEVPNGSNEDRGEVLEQEKGALSDDEIVSLSIEFYEGARDRDEKKGPLENGDGDKEKTGVRFLRCPAAMTVMHLAKFLRNKMDVPSKYKVEVLYEDEPLKEYYTLMDIAYIYPWRRNGPLPLKYRVQPACKRLTLATVPTPSEGTNTSGASECESVSDKAPSPATLPATSSSLPSPATPSHGSPSSHGPPATHPTSPTPPSTASGATTAANGGSLNCLQTPSSTSRGRKMTVNGAPVPPLT
On to B4, for which the binding entry in assay [2] was “binds”.

B5: RYBP (protein, UniProt Q8N488 1-228)
chain: MTMGDKKSPTRPKRQAKPAADEGFWDCSVCTFRNSAEAFKCSICDVRKGTSTRKPRINSQLVAQQVAQQYATPPPPKKEKKEKVEKQDKEKPEKDKEISPSVTKKNTNKKTKPKSDILKDPPSEANSIQSANATTKTSETNHTSRPRLKNVDRSTAQQLAVTVGNVTVIITDFKEKTRSSSTSSSTVTSSAGSEQQNQSSSGSESTDKGSSRSSTPKGDMSAVNDESF
Regarding B5, the binding entry is on record as “binds” in assay [3], “no binding” in assay [4], “no binding” in assay [5] and “binds” in assay [1].

B6: LETMD1 (protein, UniProt Q6P1Q0 1-360)
chain: MALSRVCWARSAVWGSAVTPGHFVTRRLQLGRSGLAWGAPRSSKLHLSPKADVKNLMSYVVTKTKAINGKYHRFLGRHFPRFYVLYTIFMKGLQMLWADAKKARRIKTNMWKHNIKFHQLPYREMEHLRQFRQDVTKCLFLGIISIPPFANYLVFLLMYLFPRQLLIRHFWTPKQQTDFLDIYHAFRKQSHPEIISYLEKVIPLISDAGLRWRLTDLCTKIQRGTHPAIHDILALRECFSNHPLGMNQLQALHVKALSRAMLLTSYLPPPLLRHRLKTHTTVIHQLDKALAKLGIGQLTAQEVKSACYLRGLNSTHIGEDRCRTWLGEWLQISCSLKEAELSLLLHNVVLLSTNYLGTRR
For the molecule B6, the binding entry in assay [1] was “binds”.

B7: SASS6 (protein, UniProt Q6UVJ0 1-657)
chain: MSQVLFHQLVPLQVKCKDCEERRVSIRMSIELQSVSNPVHRKDLVIRLTDDTDPFFLYNLVISEEDFQSLKFQQGLLVDFLAFPQKFIDLLQQCTQEHAKEIPRFLLQLVSPAAILDNSPAFLNVVETNPFKHLTHLSLKLLPGNDVEIKKFLAGCLKCSKEEKLSLMQSLDDATKQLDFTRKTLAEKKQELDKLRNEWASHTAALTNKHSQELTNEKEKALQAQVQYQQQHEQQKKDLEILHQQNIHQLQNRLSELEAANKDLTERKYKGDSTIRELKAKLSGVEEELQRTKQEVLSLRRENSTLDVECHEKEKHVNQLQTKVAVLEQEIKDKDQLVLRTKEAFDTIQEQKVVLEENGEKNQVQLGKLEATIKSLSAELLKANEIIKKLQGDLKTLMGKLKLKNTVTIQQEKLLAEKEEKLQKEQKELQDVGQSLRIKEQEVCKLQEQLEATVKKLEESKQLLKNNEKLITWLNKELNENQLVRKQDVLGPSTTPPAHSSSNTIRSGISPNLNVVDGRLTYPTCGIGYPVSSAFAFQNTFPHSISAKNTSHPGSGTKVQFNLQFTKPNASLGDVQSGATISMPCSTDKENGENVGLESKYLKKREDSIPLRGLSQNLFSNSDHQRDGTLGALHTSSKPTALPSASSAYFPGQLPNS
For B7, the binding result in assay [1] was “binds”.

B8: PHC2 (protein, UniProt Q8IXK0 1-858)
chain: MENELPVPHTSSSACATSSTSGASSSSGCNNSSSGGSGRPTGPQISVYSGIPDRQTVQVIQQALHRQPSTAAQYLQQMYAAQQQHLMLQTAALQQQHLSSAQLQSLAAVQQASLVSNRQGSTSGSNVSAQAPAQSSSINLAASPAAAQLLNRAQSVNSAAASGIAQQAVLLGNTSSPALTASQAQMYLRAQMLIFTPTATVATVQPELGTGSPARPPTPAQVQNLTLRTQQTPAAAASGPTPTQPVLPSLALKPTPGGSQPLPTPAQSRNTAQASPAGAKPGIADSVMEPHKKGDGNSSVPGSMEGRAGLSRTVPAVAAHPLIAPAYAQLQPHQLLPQPSSKHLQPQFVIQQQPQPQQQQPPPQQSRPVLQAEPHPQLASVSPSVALQPSSEAHAMPLGPVTPALPLQCPTANLHKPGGSQQCHPPTPDTGPQNGHPEGVPHTPQRRFQHTSAVILQLQPASPPQQCVPDDWKEVAPGEKSVPETRSGPSPHQQAIVTAMPGGLPVPTSPNIQPSPAHETGQGIVHALTDLSSPGMTSGNGNSASSIAGTAPQNGENKPPQAIVKPQILTHVIEGFVIQEGAEPFPVGRSSLLVGNLKKKYAQGFLPEKLPQQDHTTTTDSEMEEPYLQESKEEGAPLKLKCELCGRVDFAYKFKRSKRFCSMACAKRYNVGCTKRVGLFHSDRSKLQKAGAATHNRRRASKASLPPLTKDTKKQPTGTVPLSVTAALQLTHSQEDSSRCSDNSSYEEPLSPISASSSTSRRRQGQRDLELPDMHMRDLVGMGHHFLPSEPTKWNVEDVYEFIRSLPGCQEIAEEFRAQEIDGQALLLLKEDHLMSAMNIKLGPALKIYARISMLKDS
With B8, the binding entry in assay [2] is given as “binds”.

The record behind these values is article PMC4685312.
